In US8598314B2 (priority 2007, dated 2013):
At least one peptide structure holds a part that was inferred or is arguable (an end, a ring closure or a residue).

Experiments:
GLP-1 receptor [1] = molecular target: T1, GLP-1 receptor (Rattus norvegicus, UniProt P32301); test: GLP-1 cyclase assay with RIN m5f cell membranes; assay type: biochemical; design: endogenous in cells; host or cells: RIN m5f cells (membrane fractions); conditions: cAMP production, RIN m5f cell membrane assay
T1 sequence (P32301 22-463): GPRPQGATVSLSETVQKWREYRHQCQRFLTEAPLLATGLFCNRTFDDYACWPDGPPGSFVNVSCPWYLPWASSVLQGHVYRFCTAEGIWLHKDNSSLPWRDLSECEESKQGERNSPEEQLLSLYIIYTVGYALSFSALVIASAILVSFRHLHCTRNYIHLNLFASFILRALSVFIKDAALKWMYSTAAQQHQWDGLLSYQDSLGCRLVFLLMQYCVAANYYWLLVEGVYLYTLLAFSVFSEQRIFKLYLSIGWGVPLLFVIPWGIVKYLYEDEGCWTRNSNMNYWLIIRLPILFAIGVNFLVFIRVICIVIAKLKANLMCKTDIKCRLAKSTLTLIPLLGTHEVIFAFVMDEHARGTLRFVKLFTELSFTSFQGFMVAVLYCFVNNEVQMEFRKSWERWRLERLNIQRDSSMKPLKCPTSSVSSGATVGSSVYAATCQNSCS

NIH/Swiss mice = test: Oral glucose tolerance test (OGTT), glucose lowering; assay type: in vivo; conditions: IP injection, 2 hour fasted NIH/Swiss mice, FIGS. 5 and 6
Description: . Test compounds were injected IP (t=0 min) immediately following baseline measurements of 2 hour fasted NIH/Swiss mice. Blood samples were taken at 60, 120, and 180 minutes after injection. In some assays, samples were also taken at 240 minutes after the injection. Blood glucose was measured with a One-Touch® Ultra® glucose meter (LifeScan, Inc., Milpitas, Calif.). […].
The tests were performed as described in Example 5.

GLP-1 receptor [2] = molecular target: T1, GLP-1 receptor; test: GLP-1 cyclase assay of Example 11; assay type: biochemical; design: endogenous in cells; conditions: Table 6, assay as described herein
NIH/Swiss female mice = test: Transient effect on blood glucose and body weight; assay type: in vivo; conditions: 250 nmol/kg subcutaneous injection, FIGS. 14B and 15B
Description: A subcutaneous injection (200 μL) of vehicle (PBS) or test compound was given to NIH/Swiss female mice immediately following baseline glucose and body weight measurement. Tail blood glucose samples were measured (OneTouch® Ultra®, LifeScan Inc., Milpitas, Calif.) at baseline (time=0) and 2, 4, 8, 24, 48, 72 and 96 hrs. Body weight was measured daily. Significant test sample effects were identified by ANONA (p<0.05) followed by Dunnett's post test (GraphPad PRISM®, version 4.00 for Windows, GraphPad Software, San Diego, Calif.). Points in FIG. 14A, FIG. 14B, FIG. 15A and FIG. 15B represent mean±SD (standard deviation).

In the case of `CC[C@H](C)[C@H](NC(=O)[C@H](Cc1ccccc1)NC(=O)[C@H](CCC(=O)O)NC(=O)[C@H](CCCCN)NC(=O)[C@H](C)NC(=O)[C@H](C)NC(=O)[C@H](CCC(N)=O)NC(=O)CNC(=O)[C@H](CCC(=O)O)NC(=O)[C@H](CC(C)C)NC(=O)[C@H](Cc1ccc(O)cc1)NC(=O)[C@H](CO)NC(=O)[C@H](CO)NC(=O)[C@@H](NC(=O)[C@H](CC(=O)O)NC(=O)[C@H](CO)NC(=O)[C@@H](NC(=O)[C@H](Cc1ccccc1)NC(=O)[C@@H](NC(=O)CNC(=O)[C@H](CCC(=O)O)NC(=O)[C@H](C)NC(=O)[C@@H](N)Cc1c[nH]cn1)[C@@H](C)O)[C@@H](C)O)C(C)C)C(=O)N[C@@H](C)C(=O)N[C@@H](Cc1c[nH]c2ccccc12)C(=O)N[C@@H](CC(C)C)C(=O)N[C@H](C(=O)N[C@@H](CCCCN)C(=O)NCC(=O)N[C@@H](CCCNC(=N)N)C(=O)NCC(=O)NCC(=O)NCC(=O)NCCCC[C@H](N)C(=O)N1CCSC1C#N)C(C)C` (stereo partly drawn) [Compound 4845, GLP-1(7-37)-GG-(S)-2,6-diamino-1-(thiazolidin-2-cyano-3-yl)hexan-1-one amide], the EC50 (GLP-1 receptor [1]) is reported as 0.4 nM and the “glucose lowering in OGTT (in words)” value (NIH/Swiss mice) is reported as “enhance glucose-lowering action compared to GLP-1”.

In the case of `CC[C@H](C)[C@H](NC(=O)[C@H](Cc1ccccc1)NC(=O)[C@H](CC(C)C)NC(=O)[C@H](CCCNC(=N)N)NC(=O)[C@@H](NC(=O)[C@H](C)NC(=O)[C@H](CCC(=O)O)NC(=O)[C@H](CCC(=O)O)NC(=O)[C@H](CCC(=O)O)NC(=O)[C@H](CC(C)C)NC(=O)[C@H](CCC(N)=O)NC(=O)[C@H](CCCCN)NC(=O)[C@H](CO)NC(=O)[C@H](CC(C)C)NC(=O)[C@H](CC(=O)O)NC(=O)[C@H](CO)NC(=O)[C@@H](NC(=O)[C@H](Cc1ccccc1)NC(=O)[C@@H](NC(=O)CNC(=O)[C@H](CCC(=O)O)NC(=O)CNC(=O)[C@@H](N)Cc1c[nH]cn1)[C@@H](C)O)[C@@H](C)O)C(C)C)C(=O)N[C@@H](CCC(=O)O)C(=O)N[C@@H](Cc1c[nH]c2ccccc12)C(=O)N[C@@H](CC(C)C)C(=O)N[C@@H](CCCCN)C(=O)N[C@@H](CCC(N)=O)C(=O)NCC(=O)NCC(=O)N1CCC[C@H]1C(=O)N[C@@H](CO)C(=O)N[C@@H](CCCCN)C(=O)N[C@@H](CCC(=O)O)C(=O)N[C@H](C(=O)N[C@H](C(=O)N[C@@H](CO)C(=O)NCCOCCOCC(=O)NCCCC[C@H](N)C(=O)N1CCC[C@H]1C#N)[C@@H](C)CC)[C@@H](C)CC` [Compound 5954, [^14Leu,^28Gln]Exendin-4-(1-32)-fGLP-1-(33-37)-miniPEG-(S)-2,6-diamino-1-(pyrrolidin-2-cyano-1-yl)hexan-1-amide], the EC50 (GLP-1 receptor [2]) is reported as 0.017 nM and the “effect on body weight (in words)” value (NIH/Swiss female mice) is reported as “decrease in body weight, measurable at day 2 which continues at least through day 5”.
